In patent US20210171624A1 (ELIXIRON IMMUNOTHERAPEUTICS HONG KONG, published 2021):
These are yes or no findings as the source states them, for the method shown. Some entries that bind do so weakly or less than the wild type.

T1: recombinant human IFN-γ protein (human, UniProt P01579 24-166, limits assumed)
T1 sequence: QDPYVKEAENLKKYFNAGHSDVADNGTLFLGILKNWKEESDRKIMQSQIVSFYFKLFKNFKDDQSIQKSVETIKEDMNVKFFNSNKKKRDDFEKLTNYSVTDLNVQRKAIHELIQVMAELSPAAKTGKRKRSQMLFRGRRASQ


Key:
[1] = molecular target: T1, recombinant human IFN-γ protein; assay: ELISA, plate coated with 2 µg/mL recombinant human IFN-γ, anti-human IgG Fc-AP detection, OD 405 nm
[2] = molecular target: T1, recombinant human IFN-γ protein; assay: ELISA, biotinylated human IFN-γ on streptavidin plate, HRP anti-human IgG, OD 450-650 nm
Experimental: Recombinant human IFN-γ (R&D systems 285-IF-100) and Cynomolgus IFN-γ (R&D systems 961-RM-025) were biotinylated according to kit manual (EZ-Link NHS-LC-Biotin; Thermo #21336) and bound to streptavidin coated plate respectively. After incubated at room temperature for 1-2 hours, the plate was washed three times with 300 μL wash buffer. Serial dilutions of anti-IFN-γ antibody were added to wells. After incubated at room temperature for 1-2 hours, the plate was washed three times with 300 μL wash buffer. HRP anti-Human IgG was applied to each well at room temperature for 1 hour incubation. After washing, the plates were developed with TMB substrate, and analyzed under OD₄₅₀₋₆₅₀.

[3] = molecular target: T1, recombinant human IFN-γ protein; assay: BLI, antibody captured on AHC biosensor, recombinant human IFN-γ 0.625-20 nM as analyte
[4] = molecular target: T1, recombinant human IFN-γ protein; assay: ELISA, human IFN-γ coated at 2 µg/mL, mAb at 1 and 0.1 µg/mL, OD405
[5] = molecular target: T1, recombinant human IFN-γ protein; assay: BLI, antibody captured on AHC biosensor, recombinant human IFN-γ 0.625-10 nM as analyte
[6] = molecular target: T1, recombinant human IFN-γ protein; assay: BLI epitope binning, biotinylated human IFN-γ on streptavidin tips, antibodies at 5 µg/mL
[7] = molecular target: T1, recombinant human IFN-γ protein; assay: BLI, mAb captured on AHC biosensor
[8] = molecular target: T1, recombinant human IFN-γ protein; assay: ELISA, biotinylated human IFN-γ on streptavidin plate, OD450-650
[9] = molecular target: T1, recombinant human IFN-γ protein; assay: BLI, antibody captured on AHC biosensor, recombinant human IFN-γ 0.625-20 nM as analyte [cont.]

| Binder | binding [1] | binding [2] | binding [3] | binding [4] | binding [5] | binding [6] | binding [7] | binding [8] | binding [9] |
| --- | --- | --- | --- | --- | --- | --- | --- | --- | --- |
| antibody 2A6 (antibody, human IgG1, V domains shown, partial N-linked glycosylation at Asn-76 of the VH, Human antibody from a single B cell, cloned into human IgG1 lambda expression vectors and made in FreeStyle 293-F cells) VH: EVQLVESGGGLVKPGDSLTVSCVASGFTFSNYFIHWVRQAPGKGLEWVATISGRTKYMFYSDSLRGRFTVSRDNANNSVYLHMSSLRGEDTALYYCVRGYDHSDSNSAADLLHWGRGTLVTVSS VL: NFMLTQPLSVSGYPGKTIVISCVRSSGSVASHYVQWFQQRPGSAPAMVIYEDSHRPSGIPDRFSGSVDASSNSASLTISGLKTEDEADYFCQSYYGNNQVLFGGGTKLTVL | binds | binds | binds | binds | binds | binds | binds | binds | – |
| antibody 2A6_Q (antibody, human IgG1, V domains shown, removes the N-glycosylation site of the VH; human IgG1 lambda; also called c2A6_Q) VH: EVQLVESGGGLVKPGDSLTVSCVASGFTFSNYFIHWVRQAPGKGLEWVATISGRTKYMFYSDSLRGRFTVSRDNAQNSVYLHMSSLRGEDTALYYCVRGYDHSDSNSAADLLHWGRGTLVTVSS VL: NFMLTQPLSVSGYPGKTIVISCVRSSGSVASHYVQWFQQRPGSAPAMVIYEDSHRPSGIPDRFSGSVDASSNSASLTISGLKTEDEADYFCQSYYGNNQVLFGGGTKLTVL | – | binds | binds | – | – | – | – | binds | – |
| antibody 2F2 (antibody, human IgG1, V domains shown, Human IgG1 lambda) VH: EVQLVESGGGLVKPGESLRLACVASGFNFSDYYMTWIRQAPGKGLEWVSYISNSGSHTYYADAVKGRFTVSRDNAKNSLYLQMTSLRGEDTAIYFCARDPSIMRGTYYMDVWGKGTTVTVSS VL: QSVLTQPPSASGTPGQRVTISCSGSSSNIGTNPVSWYQQFPGMAPKLLIYFNNQRPSGVPERFSGSKSGTPASLAIGGLQSEDEANYYCASWDDTLNGLVFGGGTKLTVL | binds | – | – | binds | binds | binds | binds | – | – |

More lines, now with the values ahead:

| binding [1] | binding [2] | binding [3] | binding [4] | binding [5] | binding [6] | binding [7] | binding [8] | binding [9] | Binder |
| --- | --- | --- | --- | --- | --- | --- | --- | --- | --- |
| binds | binds | binds | binds | binds | binds | binds | binds | – | antibody 2B6 (antibody, human IgG1, V domains shown, Human IgG1 lambda) VH: EVQLVESGGGLVKPGGSLRLSCAASGFPFSRYSMHWVRQAPGKGLEWVSSMTSRTNHKYYADSLKGRFLISRDNDRDSLYLEMNSLGVEDTAIYFCARGYDTSGSDSGVDFQYWGQGTLVTVSS VL: NFMLTQPHSVSESPGKTITISCTRGRGYIASYYVQWYQQRPGGVPKIVVFEDTQRPSGVPDRISGSIDTSTNSASLTISGLQTEDEADYYCQSYDDANHVIFGGGTKLTVL |
| binds | binds | – | binds | – | – | – | binds | binds | antibody AB (antibody, human IgG1, V domains shown, Combination of the 2A6 VH heavy chain and the 2B6 VL light chain; human IgG1 lambda; also called VH2A6/VL2B6) VH: EVQLVESGGGLVKPGDSLTVSCVASGFTFSNYFIHWVRQAPGKGLEWVATISGRTKYMFYSDSLRGRFTVSRDNANNSVYLHMSSLRGEDTALYYCVRGYDHSDSNSAADLLHWGRGTLVTVSS VL: NFMLTQPHSVSESPGKTITISCTRGRGYIASYYVQWYQQRPGGVPKIVVFEDTQRPSGVPDRISGSIDTSTNSASLTISGLQTEDEADYYCQSYDDANHVIFGGGTKLTVL |
| – | binds | binds | – | – | – | – | binds | – | antibody 2A6_A (antibody, human IgG1, V domains shown, removes the N-glycosylation site of the VH; human IgG1 lambda; also called c2A6_A) VH: EVQLVESGGGLVKPGDSLTVSCVASGFTFSNYFIHWVRQAPGKGLEWVATISGRTKYMFYSDSLRGRFTVSRDNAANSVYLHMSSLRGEDTALYYCVRGYDHSDSNSAADLLHWGRGTLVTVSS VL: NFMLTQPLSVSGYPGKTIVISCVRSSGSVASHYVQWFQQRPGSAPAMVIYEDSHRPSGIPDRFSGSVDASSNSASLTISGLKTEDEADYFCQSYYGNNQVLFGGGTKLTVL |
| binds | – | – | binds | binds | binds | binds | – | – | antibody 1E8 (antibody, human IgG1, V domains shown, Human IgG1 lambda) VH: EVQLLESGGGLVQPGGPLRLSCAASGFTFSIYSMNWVRQAPGKGLEWVSSISGSGDNTYYADSVKGRFTITRDSSKNTLYLQMNTLRAEDTAVYFCAKSGRNIISPGFDSWGQGTLVTVSS VL: QPVLTQPPSASASLGASVTLTCTLNSDYGDYKVDWYQQRPGKGPRFVMRVGTGGIVGSKGDGIPDRFSVLGSGLNRFLTIKNIQEEDESDYYCGADHGSANNFIWVFGGGTKLTVL |
